Our source for the binding values is patent US20220267454A1.

The chains behind the UniProt entries cited, without tags or fusion partners. Residues count along the entry.
UniProt Q9NPH3, residues 21-367: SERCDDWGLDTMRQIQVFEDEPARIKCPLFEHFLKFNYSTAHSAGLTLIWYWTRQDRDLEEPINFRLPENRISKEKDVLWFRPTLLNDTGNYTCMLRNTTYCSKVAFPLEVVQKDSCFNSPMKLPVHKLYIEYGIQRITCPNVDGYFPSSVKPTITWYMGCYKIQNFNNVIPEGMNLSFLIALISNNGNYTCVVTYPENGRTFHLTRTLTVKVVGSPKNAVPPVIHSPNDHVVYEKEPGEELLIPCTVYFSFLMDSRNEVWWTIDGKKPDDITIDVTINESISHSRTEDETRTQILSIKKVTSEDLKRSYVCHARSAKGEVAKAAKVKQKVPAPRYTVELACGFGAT

Experiment [1] deals with human IL1RAP (analyte of the Biacore study) (human) (UniProt Q9NPH3). Kind of experiment: SPR (Biacore T200). Background: Surface plasmon resonance follows binding to a sensor surface in real time, without labels.
The target of experiment [2] is recombinant M. fascicularis IL1RAP (aa21-367) (Macaca fascicularis (cynomolgus)). Kind of experiment: ELISA on recombinant M. fascicularis IL1RAP (aa21-367). For orientation: ELISA stands for enzyme-linked immunosorbent assay.

These are yes or no findings as the source states them, for the method shown. Some results given as binding are weak or reduced against the parent protein; the word gives no strength.

B1: CAN03 (antibody, V domains shown)
VH: DVKLVESGGGLVKPGGSLKLSCAASGFTFSIYTMSWVRQTPEKRLEWVATISIGGSYINYPDSVKGRFTISRDNAKNTLYLQMSSLKSEDTAIYYCSREVDGSYAMDYWGQGTSVTVSS
VL: DILLTQSPAILSVSPGERVSFSCRASQSIGTSIHWYQRRTNGSPRLLIKSASESISGIPSRFSGSGSGTDFTLSINSVESEDIADYYCQQSNSWPTTFGAGTKLELKR
In the case of B1, the binding result in experiment [1] and in experiment [2] was “binds” throughout.
